In publication PMC12644026:
No constants are given. Whether binding was seen depends on the method and setting. In cells and extracts the contact can be indirect. Some results given as binding are weak or reduced against the parent protein; the word gives no strength.

The chains behind the UniProt entries cited, without tags or fusion partners.
UniProt Q9UQB8: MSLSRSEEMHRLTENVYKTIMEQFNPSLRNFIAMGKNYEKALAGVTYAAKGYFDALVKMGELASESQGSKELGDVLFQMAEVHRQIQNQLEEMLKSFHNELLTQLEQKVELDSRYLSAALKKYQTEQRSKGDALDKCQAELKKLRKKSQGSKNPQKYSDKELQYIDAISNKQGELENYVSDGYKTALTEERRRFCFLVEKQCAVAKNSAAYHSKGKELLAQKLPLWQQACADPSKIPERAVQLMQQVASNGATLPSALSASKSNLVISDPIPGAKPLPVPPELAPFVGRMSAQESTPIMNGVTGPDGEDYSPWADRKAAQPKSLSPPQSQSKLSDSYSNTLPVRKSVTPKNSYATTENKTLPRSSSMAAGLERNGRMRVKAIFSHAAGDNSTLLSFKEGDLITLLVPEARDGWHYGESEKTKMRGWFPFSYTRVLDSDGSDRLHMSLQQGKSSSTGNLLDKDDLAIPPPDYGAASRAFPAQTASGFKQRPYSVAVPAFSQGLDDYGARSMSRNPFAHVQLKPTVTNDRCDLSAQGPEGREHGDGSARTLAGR
UniProt Q9P206: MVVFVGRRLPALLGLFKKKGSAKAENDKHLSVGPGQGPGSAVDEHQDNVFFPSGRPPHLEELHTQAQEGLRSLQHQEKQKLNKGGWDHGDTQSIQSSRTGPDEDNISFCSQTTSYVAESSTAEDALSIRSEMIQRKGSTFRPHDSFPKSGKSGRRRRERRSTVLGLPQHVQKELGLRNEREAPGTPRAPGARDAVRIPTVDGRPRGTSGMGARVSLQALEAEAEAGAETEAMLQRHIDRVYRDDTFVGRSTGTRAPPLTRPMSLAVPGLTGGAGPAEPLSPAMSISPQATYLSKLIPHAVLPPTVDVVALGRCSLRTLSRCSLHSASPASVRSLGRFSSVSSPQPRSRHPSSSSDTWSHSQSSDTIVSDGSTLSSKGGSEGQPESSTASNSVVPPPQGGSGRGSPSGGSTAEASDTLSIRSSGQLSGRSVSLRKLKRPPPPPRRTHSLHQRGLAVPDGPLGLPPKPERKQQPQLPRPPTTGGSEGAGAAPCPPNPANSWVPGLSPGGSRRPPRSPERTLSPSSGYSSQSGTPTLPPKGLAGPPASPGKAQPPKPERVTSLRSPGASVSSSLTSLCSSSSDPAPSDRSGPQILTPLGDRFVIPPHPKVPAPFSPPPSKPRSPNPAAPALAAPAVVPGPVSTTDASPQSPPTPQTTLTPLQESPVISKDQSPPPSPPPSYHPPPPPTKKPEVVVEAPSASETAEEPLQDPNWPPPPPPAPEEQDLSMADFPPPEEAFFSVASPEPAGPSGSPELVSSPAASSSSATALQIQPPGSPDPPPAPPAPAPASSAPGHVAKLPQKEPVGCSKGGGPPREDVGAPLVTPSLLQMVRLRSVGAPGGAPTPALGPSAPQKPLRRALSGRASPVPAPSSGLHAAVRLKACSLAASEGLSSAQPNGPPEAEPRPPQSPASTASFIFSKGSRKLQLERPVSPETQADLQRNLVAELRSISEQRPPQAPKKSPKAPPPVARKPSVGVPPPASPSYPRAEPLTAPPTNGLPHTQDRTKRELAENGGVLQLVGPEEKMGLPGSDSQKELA

Biological target: GST-IRSp53 (UniProt Q9UQB8)
Test: pull-down; GST-IRSp53 (or GST-empty) on beads incubated 1 h at 4 C with TNE lysate of HEK293 cells overexpressing KIAA1522-mCherry; immunoblot for mCherry; only the target purified

binding: binds
Substance: KIAA1522-mCherry (from UniProt Q9P206 1-1035)
